Values quoted from earlier work, collected in US6852328B1, “Method and device for protection of wooden objects proximate soil from pest invasion” (priority 1989, dated 2005).
At least one compound was matched to its structure with a doubt left.

Settings: cited from earlier work

| SMILES | vapor pressure [mPa] |
| --- | --- |
| CC1(C)C(C=C(Cl)Cl)C1C(=O)OC(C#N)c1ccc(F)c(Oc2ccccc2)c1 (centres unmarked) [cyfluthrin] | 1 |
| CC(C)=CC1C(C(=O)OC(C#N)c2cccc(Oc3ccccc3)c2)C1(C)C (centres unmarked) [cyphenothrin] | 0.12 |
